This is an account of results in PubChem BioAssay (NCATS).

The chains behind the UniProt entries cited, without tags or fusion partners. Where a name states a change or a piece, a line headed by the entry shows the natural chain unless it says otherwise.
UniProt P04150: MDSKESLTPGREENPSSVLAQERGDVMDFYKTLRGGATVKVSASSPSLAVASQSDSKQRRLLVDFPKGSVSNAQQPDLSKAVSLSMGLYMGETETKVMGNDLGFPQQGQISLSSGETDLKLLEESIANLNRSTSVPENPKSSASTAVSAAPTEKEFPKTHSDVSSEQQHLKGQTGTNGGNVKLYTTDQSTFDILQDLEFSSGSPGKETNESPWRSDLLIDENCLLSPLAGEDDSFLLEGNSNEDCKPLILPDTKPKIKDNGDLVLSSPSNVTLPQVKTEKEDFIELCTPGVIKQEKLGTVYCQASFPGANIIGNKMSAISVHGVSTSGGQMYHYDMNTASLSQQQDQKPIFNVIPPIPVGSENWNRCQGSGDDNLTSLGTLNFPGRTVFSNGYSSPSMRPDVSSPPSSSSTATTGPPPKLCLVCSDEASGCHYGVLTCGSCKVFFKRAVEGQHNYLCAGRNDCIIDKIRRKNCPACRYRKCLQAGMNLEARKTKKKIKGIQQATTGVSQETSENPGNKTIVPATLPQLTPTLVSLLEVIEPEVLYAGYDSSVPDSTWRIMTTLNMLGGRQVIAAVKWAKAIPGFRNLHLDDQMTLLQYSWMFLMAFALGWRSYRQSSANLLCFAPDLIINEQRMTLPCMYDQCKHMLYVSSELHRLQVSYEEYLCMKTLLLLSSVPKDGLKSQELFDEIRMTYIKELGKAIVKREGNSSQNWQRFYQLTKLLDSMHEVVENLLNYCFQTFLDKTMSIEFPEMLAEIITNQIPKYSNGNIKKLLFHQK
UniProt Q07343: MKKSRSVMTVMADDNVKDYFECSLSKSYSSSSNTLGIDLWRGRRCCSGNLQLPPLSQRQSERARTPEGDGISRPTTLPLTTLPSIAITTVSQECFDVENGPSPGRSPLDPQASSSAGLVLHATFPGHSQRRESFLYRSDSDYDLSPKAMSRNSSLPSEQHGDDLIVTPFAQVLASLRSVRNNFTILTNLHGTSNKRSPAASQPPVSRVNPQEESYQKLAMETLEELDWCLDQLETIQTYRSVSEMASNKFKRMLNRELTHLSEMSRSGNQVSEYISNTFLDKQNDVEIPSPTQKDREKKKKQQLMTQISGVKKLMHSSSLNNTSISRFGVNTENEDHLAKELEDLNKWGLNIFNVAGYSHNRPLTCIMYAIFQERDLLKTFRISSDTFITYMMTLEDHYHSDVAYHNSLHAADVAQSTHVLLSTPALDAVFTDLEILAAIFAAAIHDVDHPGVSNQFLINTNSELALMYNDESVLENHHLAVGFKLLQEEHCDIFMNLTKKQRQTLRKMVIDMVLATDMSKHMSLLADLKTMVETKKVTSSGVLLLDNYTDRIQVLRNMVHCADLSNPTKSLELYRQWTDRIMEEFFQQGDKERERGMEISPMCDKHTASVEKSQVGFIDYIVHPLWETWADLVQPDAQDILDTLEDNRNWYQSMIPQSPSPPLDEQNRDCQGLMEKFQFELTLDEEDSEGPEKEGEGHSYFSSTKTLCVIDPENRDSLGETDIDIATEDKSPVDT
UniProt Q99828: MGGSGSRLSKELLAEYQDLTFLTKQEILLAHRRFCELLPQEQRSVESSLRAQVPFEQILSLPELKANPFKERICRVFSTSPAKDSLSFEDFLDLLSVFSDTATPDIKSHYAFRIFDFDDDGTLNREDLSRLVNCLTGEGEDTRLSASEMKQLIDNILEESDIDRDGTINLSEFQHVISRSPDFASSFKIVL
UniProt P07203, whole entry, looked up: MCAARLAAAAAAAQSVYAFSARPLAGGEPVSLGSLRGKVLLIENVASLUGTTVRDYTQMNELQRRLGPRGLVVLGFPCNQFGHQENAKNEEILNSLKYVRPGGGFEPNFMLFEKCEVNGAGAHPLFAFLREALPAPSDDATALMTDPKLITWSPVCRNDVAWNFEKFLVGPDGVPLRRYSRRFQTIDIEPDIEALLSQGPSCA
UniProt P36969, whole entry, looked up: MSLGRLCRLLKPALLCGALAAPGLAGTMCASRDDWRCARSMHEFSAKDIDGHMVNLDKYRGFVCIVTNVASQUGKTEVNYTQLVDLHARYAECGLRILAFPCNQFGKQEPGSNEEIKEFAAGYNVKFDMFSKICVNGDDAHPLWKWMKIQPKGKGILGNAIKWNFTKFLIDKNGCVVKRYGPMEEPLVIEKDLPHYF
UniProt P04062: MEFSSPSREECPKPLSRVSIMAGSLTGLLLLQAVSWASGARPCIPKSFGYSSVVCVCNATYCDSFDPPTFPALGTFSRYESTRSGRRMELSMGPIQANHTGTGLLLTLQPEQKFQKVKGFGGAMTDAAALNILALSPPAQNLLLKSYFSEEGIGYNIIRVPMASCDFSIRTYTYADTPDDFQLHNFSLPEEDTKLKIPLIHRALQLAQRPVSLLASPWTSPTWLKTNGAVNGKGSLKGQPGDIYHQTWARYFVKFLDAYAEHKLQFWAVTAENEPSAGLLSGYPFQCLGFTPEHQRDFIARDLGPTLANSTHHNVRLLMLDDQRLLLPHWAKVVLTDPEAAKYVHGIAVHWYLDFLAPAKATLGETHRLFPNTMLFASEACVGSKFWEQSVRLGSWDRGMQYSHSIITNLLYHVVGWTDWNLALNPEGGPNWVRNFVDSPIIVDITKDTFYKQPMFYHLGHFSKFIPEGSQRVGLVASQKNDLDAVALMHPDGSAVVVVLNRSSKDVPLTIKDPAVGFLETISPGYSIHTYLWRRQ

For some assays here: The hits were mostly taken out for another list; the other results follow. Results filed as inconclusive are left out. The list shows a part of the results, in another mix than the full data. Activity calls are given as the source filed them. Unless noted, the call rests on the fitted dose curve; in most records, active means well fitted inhibition curve with a large enough effect; inconclusive means small, poorly fitted or top-dose-only effect; inactive means flat fitted curve, though single readings scatter.

The target in assay [1] is Glucocorticoid receptor (Homo sapiens) (UniProt P04150). In words: GR-GFP Redistribution (AID 450;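 active means compounds whose dose series gives a full or clear partial fitted curve of increased nuclear translocation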; further: potency means the concentration at half of the fitted maximal effect). The following applies: U2OS GR-GFP nuclear translocation, laser cytometry, 2 h.
The target is the same in assay [2]. In words: GR-EFC Redistribution (AID 451; calls by dose curve; further: potency means the concentration at half of the fitted maximal effect). The following applies: CHO-K1 GR-EFC translocation, beta-gal luminescence, 2 h. In a few lines:
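Translocation of GR-ED fusion to nuclear EA restores b-gal, read by luminescence after 1 h room-temperature detection. Engineered CHO-K1 biosensor cells, 1,000/well, exposed 2 h at 37 C to titrations up to 46 uM final.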

Assay [3] has as its target Mitogen-activated protein kinase 10 (Mus musculus) (UniProt Q61831). In words: JNK3 AlphaScreen Assay (AID 530; active means well fitted curve in either direction with a large enough effect, not every such curve was filed as active;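 further: kinase came from lysate of stimulated human HepG2 cells; signal reports phosphorylation of biotinylated GST-cJun 1-79 at Ser73 with 10 µM ATP; on the % scale 0 is the no-effect control and ±100 the full control effect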). The following applies: JNK3 lysate, c-Jun phosphorylation; at 11.4 µM (top of the series) unless noted. In a few lines:
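Room-temperature AlphaScreen kinase assay; pre-activated HepG2 lysate as JNK3 source, biotin-GST-cJun(1-79) substrate, 10 uM ATP, compound 15 min preincubation.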
For orientation: In Alpha technology, singlet oxygen from a donor bead excites a nearby acceptor bead.

Assay [4] has as its target 3',5'-cyclic-AMP phosphodiesterase 4B (Homo sapiens) (UniProt Q07343). In words: qHTS Assay for Inhibitors of PDE-IV (AID 607; active means well fitted activation curve with a large enough effect in the main read-out, with a control signal flat, not every such curve was filed as active; further: % of control where 0% means no effect). The following applies: HEK293 ACTOne CNG channel cells, membrane potential fluorescence; at 22.9 µM (top of the series). In a few lines:
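Live HEK293 cells with a modified cyclic nucleotide-gated (CNG) channel report intracellular cAMP via membrane-potential dye fluorescence (ex 535/em 590 nm). Endogenous PDE-IV was targeted. Compounds were tested at up to 22.9 uM final; RO 20-1724 100 uM served as control.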
A general note: Quantitative high-throughput screening tests each substance at several concentrations.

Assay [5] is described as follows: qHTS Assay for Lipid Storage Modulators (AID 1519; calls by dose curve). The following applies: Drosophila S3 cells, BODIPY lipid droplet/cell ratio, laser cytometry, cells loaded with oleic acid. In a few lines:
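Cells seeded at 5,000 per well were treated with compounds over a concentration series and loaded with oleic acid (400 uM, as added). Lipid droplet fluorescence (488 nm excitation, 500-530 nm channel) was read by laser-scanning cytometry and normalized to 20 uM Triacsin C.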

In assay [6] the target is Calcium and integrin-binding protein 1 (Homo sapiens) (UniProt Q99828). In words: Primary qHTS for Identification of Calcium Integrin Binding Protein 1 (CIB1) Competitor (AID 1508620).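 Further: GST tagged CIB1 binding a fluorescein labelled alphaIIb integrin peptide tracer; top concentration of the series differs between compounds; on the % scale 0 is the no-effect control and ±100 the full control effect.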 The following applies: CIB1-GST / FITC-alphaIIb peptide fluorescence polarization; at 114 µM (top of the series). The method, boiled down: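 CIB1-GST (1 uM final) and compound incubated 15 min at room temperature before adding FITC-alphaIIb peptide tracer (100 nM final). Competition for binding read by fluorescence polarization (ex 480, em 540) after another 15 min at room temperature.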

The target of assay [7] is Glutathione peroxidase 1 (Homo sapiens) (UniProt P07203). In words: Primary qHTS Assay for Inhibitors of Recombinant Selenoprotein Glutathione Peroxidase 1 (GPX1) (AID 1845191). Further: on the % scale 0 is the no-effect control and ±100 the full control effect; nearly all actives have a fitted effect of over 65% in size. The following applies: recombinant GPX1, GR-coupled NADPH fluorescence, 15 min; activity, negative = inhibition: at 48.8 µM (top of the series). The method, boiled down: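 10 nM GPX1 + cpd, 30 min RT; start w/ 1 mM GSH, 0.5 mM cumene hydroperoxide, 0.5 mM NADPH, 100 nM GR, 0.01% BSA; buffer 50 mM Tris-HCl pH 7.5, 2 mM EDTA, 150 mM NaCl; Fl 340/450, 0 & 15 min.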

The target of assay [8] is Phospholipid hydroperoxide glutathione peroxidase GPX4 (Homo sapiens) (UniProt P36969). In words: Primary qHTS Assay for Inhibitors of Recombinant Selenoprotein Glutathione Peroxidase 4 (GPX4) (AID 1845192). Further: on the % scale 0 is the no-effect control and ±100 the full control effect; nearly all actives have a fitted effect of over 65% in size. The following applies: recombinant GPX4, GR-coupled NADPH fluorescence, 15 min; at 50 µM (top of the series). In a few lines: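 NADPH consumption, followed by fluorescence at 340/450 nm between 0 and 15 min, reports GPX4 activity via coupled glutathione reductase (100 nM). Enzyme 200 nM was pre-exposed to compound 30 min; 0.5 mM cumene hydroperoxide and 1 mM GSH served as substrates.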

Assay [9] addresses Lysosomal acid glucosylceramidase (Homo sapiens) (UniProt P04062). In words: Glucocerebrosidase-p2 (AID 348; in the data active means potency below about 10 µM; further: potency means the concentration at half of the fitted maximal effect). The following applies: purified GBA, blue fluorogenic substrate, 40 min. In a few lines:
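Compounds titrated from 0.6 nM upwards against 0.2 nM enzyme in pH 5.9 citric acid/KH2PO4, taurocholate, tween-20; blue fluorogenic substrate 80 uM, 40 min room temperature, stopped and read Ex 365/Em 440 for AC50.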

Assay [10] is described as follows: AP1 Signaling Pathway (AID 357; active means well fitted curve in either direction with a large enough effect, not every such curve was filed as active; further: on the % scale 0 is the no-effect control and ±100 the full control effect). The following applies: ME-180 (cervical carcinoma) AP-1-bla reporter, EGF-induced, beta-lactamase ratio, 5 h; at 7.69 µM (top of the series). The method, boiled down:
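ME-180 cells with beta-lactamase reporter under AP-1 response element, stimulated with EC50 EGF; compounds tested in titration series, 5 h at 37 °C. CCF4 substrate added 2.5 h at room temperature; 460/530 nm emission ratio gave %activity and AC50.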

Assay [11] can be described thus: NFAT Signaling Pathway (AID 444; active means well fitted curve in either direction with a large enough effect, not every such curve was filed as active;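 further: carbachol stimulus at about its EC50 of 1 µM final; on the % scale 0 is the no-effect control and ±100 the full control effect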). The following applies: Jurkat NFAT-bla M1, carbachol, beta-lactamase ratio, 5 h; at 7.69 µM (top of the series). In a few lines:
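Read-out: CCF4 FRET ratio (460 nm/530 nm) after 1 h RT dye loading, used for %activity and AC50 from titration series. Cells: Jurkat NFAT-β-lactamase/M1 line, treated with compound plus 1 uM carbachol for 5 h, 37 °C.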

`Cc1c(C(=O)NN2CCCCC2)nn(-c2ccc(Cl)cc2Cl)c1-c1ccc(I)cc1`: the Potency in [1] and in assay [2] was inactive: > 46 µM in each case. In assay [3], the activity change, negative = inhibition is inactive: -5.1% [at 57.1 µM]. The activation (PDE inhibition) in assay [4] was inactive: 1.4%.
Turning to `Cc1cccc(CCN2CCC(C(=O)c3ccc(NS(C)(=O)=O)cc3)CC2)n1`, the Potency in [1] and in assay [2] was inactive: > 46 µM in each case. Further, in assay [5] (at 57.5 µM (top of the series)), the activity change, negative = inhibition is inactive: -1.88%. Moreover, the max response in assay [5] (measured here: cell count channel max response) was determined as 3.45%; in assay [5] (measured here: lipid channel max response), 2.65%.
With `COc1ccc(-c2c(C)c(C(=O)NN3CCCCC3)nn2-c2ccc(Cl)cc2Cl)cc1`, the activity change, negative = inhibition in assay [6] is inactive: 0.227%; in assay [8], inactive: -4.61%. The activity, negative = inhibition in assay [7] was inactive: 3.7%.
For `CCCCNc1c(CN)cnc2cc(Cl)ccc12`, the Potency in [9] was active: 4.78 µM. Besides, the activity change, negative = inhibition in assay [10] is inactive: 4.8%; in [11] it was inactive: 22.9%; in assay [3], inactive: -3.34%. The activation (PDE inhibition) in assay [4] is inactive: 13.9%.
For the molecule `N#Cc1ccc2c(c1)CCN(CCC1CCC(NC(=O)c3ccnc4ccccc34)CC1)C2` (stereo not drawn), the activity change, negative = inhibition in assay [6] is inactive: 2.23%; in assay [8], inactive: 3.42%. Further, in assay [7], the activity, negative = inhibition was inactive: -0.281%.
Regarding `COc1ccc2c(c1)c1c(C)c3cnccc3c(C)c1n2CCCN`, the Potency in [9] was inactive: > 11.4 µM. For the same molecule, in [3], the activity change, negative = inhibition was inactive: -5.27%. In addition, the activation (PDE inhibition) in assay [4] was inactive: -0.785%.
